Laboratory results: patent US7615102B2, “Corrosion and gas hydrate inhibitors with an increased biological degradability and a reduced toxicity” (Clariant Produkte (Deutschland) GmbH, priority 2004, dated 2009)

Legend:
[1] = Shell wheel test (corrosion inhibition); settings: 50 ppm of a 40% solution of the inhibitor; salt water/petroleum mixture, pH 3.5, 40 rpm, 70° C., 24 hours; from mass decrease of coupons based on a blank value
[2] = LPR test (corrosion inhibition, analogous to ASTM D 2776)

| Substance | ø Protection % [1] [%] | Protection after 10 min [2] [%] | Protection after 30 min [2] [%] | Protection after 60 min [2] [%] |
| --- | --- | --- | --- | --- |
| Dodecenyl-/tetradecenylsuccinic Acid N,N-dibutylamino-N-tri(ethoxy)ethyl Ester [Compound from example 4] | 78.4 | 52.4 | 66.8 | 78.8 |
| Pentapropylenesuccinic Acid N,N-dibutylamino-N-ethyl Ester [Compound from example 2] | 79.3 | 50.3 | 65.7 | 79.3 |
| Pentapropylenesuccinic Acid N,N-dibutylamino-N-tri(ethoxy)ethyl Ester [Compound from example 7] | 81.3 | 55.8 | 70.1 | 83.5 |
